Measurements as given in PMC12391449, “Hepatitis C virus NS3 helicase contributes to (−) strand RNA synthesis”.
These are yes or no findings as the source states them, for the method shown. Binding seen in cells or lysates may run through a third protein. Some entries that bind do so weakly or less than the wild type.

Amino acid sequences for entries named in this document (tags omitted). Residues count along the entry.
HCV non-structural protein 3 (NS3), JFH1 wt (hepatitis C virus, isolate JFH1 (gt2a)) (Q99IB8, residues 1031-1661): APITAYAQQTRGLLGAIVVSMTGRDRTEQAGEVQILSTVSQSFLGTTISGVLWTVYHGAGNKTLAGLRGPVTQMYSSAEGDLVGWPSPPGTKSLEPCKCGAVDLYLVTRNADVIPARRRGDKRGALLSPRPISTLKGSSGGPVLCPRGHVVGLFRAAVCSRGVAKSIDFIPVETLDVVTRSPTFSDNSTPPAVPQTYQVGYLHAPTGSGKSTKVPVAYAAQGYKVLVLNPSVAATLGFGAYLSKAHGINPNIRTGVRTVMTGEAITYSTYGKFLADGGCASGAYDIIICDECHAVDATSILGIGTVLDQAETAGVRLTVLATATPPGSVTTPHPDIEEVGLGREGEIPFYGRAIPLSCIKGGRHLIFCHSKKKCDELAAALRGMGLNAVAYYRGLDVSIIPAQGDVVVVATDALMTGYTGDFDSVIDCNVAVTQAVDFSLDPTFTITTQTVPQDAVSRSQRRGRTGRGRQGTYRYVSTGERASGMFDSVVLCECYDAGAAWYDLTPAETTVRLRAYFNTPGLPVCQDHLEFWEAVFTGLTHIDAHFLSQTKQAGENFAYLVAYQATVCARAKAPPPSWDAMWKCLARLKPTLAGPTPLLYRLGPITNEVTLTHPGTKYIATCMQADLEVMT
HCV non-structural protein 4B (NS4B), JFH1 (Q99IB8, residues 1716-1976): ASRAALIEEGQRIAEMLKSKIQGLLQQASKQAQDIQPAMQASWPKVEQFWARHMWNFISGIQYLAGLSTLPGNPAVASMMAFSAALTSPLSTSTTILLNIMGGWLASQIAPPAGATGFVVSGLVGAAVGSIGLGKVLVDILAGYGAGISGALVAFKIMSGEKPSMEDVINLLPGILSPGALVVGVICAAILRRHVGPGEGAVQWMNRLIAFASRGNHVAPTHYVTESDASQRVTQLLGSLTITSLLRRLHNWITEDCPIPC
HCV non-structural protein 5A (NS5A), JFH1 (Q99IB8, residues 1977-2442): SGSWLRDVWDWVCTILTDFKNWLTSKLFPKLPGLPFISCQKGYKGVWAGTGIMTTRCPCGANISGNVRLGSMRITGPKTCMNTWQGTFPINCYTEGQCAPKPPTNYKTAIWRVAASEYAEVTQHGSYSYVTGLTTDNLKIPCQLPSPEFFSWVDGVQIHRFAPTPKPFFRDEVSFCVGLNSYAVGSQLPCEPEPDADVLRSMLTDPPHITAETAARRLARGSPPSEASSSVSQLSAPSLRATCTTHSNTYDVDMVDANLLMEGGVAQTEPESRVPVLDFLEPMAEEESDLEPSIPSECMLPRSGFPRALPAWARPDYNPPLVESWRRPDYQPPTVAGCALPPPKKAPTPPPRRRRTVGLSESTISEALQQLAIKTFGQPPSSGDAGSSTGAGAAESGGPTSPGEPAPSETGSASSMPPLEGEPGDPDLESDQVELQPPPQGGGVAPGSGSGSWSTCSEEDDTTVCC

How the values were obtained:
[1] = target: HCV non-structural protein 3 (NS3), JFH1 wt (hepatitis C virus, isolate JFH1 (gt2a)) (UniProt Q99IB8); assay: co-IP; NS3-5B expressed transiently in Huh7-Lunet T7 cells; cells treated with the cell-permeable crosslinker DSP; NS3-IP; NS proteins detected by WB
[2] = target: HCV non-structural protein 3 (NS3), JFH1 wt (hepatitis C virus, isolate JFH1 (gt2a)) (UniProt Q99IB8); assay: co-IP; NS3-5B expressed transiently in Huh7-Lunet T7 cells; no DSP; lysis in native protein buffer (50 mM Tris-HCl pH 7.5, 150 mM NaCl, 1% NP-40, 1% sodium deoxycholate, 0.1% SDS); NS3 2E3 antibody on protein G dynabeads, overnight at 4 °C; WB

Substance | binding [1] | binding [2]
HCV non-structural protein 5A (NS5A), JFH1 (from UniProt Q99IB8 1977-2442) | binds | no binding (condition: in the absence of DSP)
HCV non-structural protein 4B (NS4B), JFH1 (from UniProt Q99IB8 1716-1976) | binds | no binding (condition: in the absence of DSP)
